Assay results published in PMC4906230.

By UniProt entry, the sequences of proteins in these tests, tags left out. Where a name states a change or a piece, a line headed by the entry shows the natural chain unless it says otherwise.
UniProt P31431: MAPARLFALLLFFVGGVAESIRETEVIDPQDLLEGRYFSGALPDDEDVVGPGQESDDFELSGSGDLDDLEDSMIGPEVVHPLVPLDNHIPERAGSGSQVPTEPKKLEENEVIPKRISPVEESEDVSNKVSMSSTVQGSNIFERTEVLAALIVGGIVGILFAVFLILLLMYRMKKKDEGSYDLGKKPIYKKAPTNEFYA
UniProt O95786: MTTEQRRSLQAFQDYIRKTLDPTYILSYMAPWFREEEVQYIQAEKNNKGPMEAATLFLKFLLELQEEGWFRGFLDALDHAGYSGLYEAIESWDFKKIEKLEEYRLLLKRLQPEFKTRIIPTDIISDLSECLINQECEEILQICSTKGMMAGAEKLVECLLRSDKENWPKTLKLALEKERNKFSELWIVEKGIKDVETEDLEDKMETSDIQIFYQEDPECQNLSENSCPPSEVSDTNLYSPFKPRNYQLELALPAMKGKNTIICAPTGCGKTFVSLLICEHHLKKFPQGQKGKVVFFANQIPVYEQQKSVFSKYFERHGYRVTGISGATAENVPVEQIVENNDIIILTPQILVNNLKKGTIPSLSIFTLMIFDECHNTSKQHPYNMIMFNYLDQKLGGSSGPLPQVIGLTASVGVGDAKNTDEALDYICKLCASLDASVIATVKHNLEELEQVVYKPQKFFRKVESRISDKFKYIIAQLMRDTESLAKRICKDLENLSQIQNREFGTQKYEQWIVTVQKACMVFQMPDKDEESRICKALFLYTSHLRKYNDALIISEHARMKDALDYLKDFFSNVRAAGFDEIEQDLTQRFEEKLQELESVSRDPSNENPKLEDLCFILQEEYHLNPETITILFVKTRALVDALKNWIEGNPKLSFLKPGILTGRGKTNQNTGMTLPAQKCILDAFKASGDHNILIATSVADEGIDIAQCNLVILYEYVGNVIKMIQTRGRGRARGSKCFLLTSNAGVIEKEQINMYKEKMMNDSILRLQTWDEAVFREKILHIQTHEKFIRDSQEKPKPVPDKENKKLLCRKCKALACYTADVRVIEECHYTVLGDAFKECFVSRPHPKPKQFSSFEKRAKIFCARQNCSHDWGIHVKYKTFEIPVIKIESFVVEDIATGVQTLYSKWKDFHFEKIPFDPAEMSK

Target: SDC4ΔTM (SDC4 with the transmembrane domain deleted) (human) (UniProt P31431)
Experiment: co-IP; HEK293 cells transfected with epitope-tagged expression plasmids, lysed 24 h later; lysates immunoprecipitated with anti-Myc or anti-Flag beads and immunoblotted; in Fig. 7f,g with SDC4 overexpressed or knocked down by siRNA

**Q.** For “RIG-I, transfected, construct not told for the experiment (from UniProt O95786 1-925)”, which binding is on record?
**A.** binds

No constants are given. Whether binding was seen depends on the method and setting. In cells and extracts the contact can be indirect. Binding can be weak; no strength is given.
